In patent publication US20220096512A1, “WATER-BASED ANTIFUNGAL COMPOSITIONS” (Sigma-Aldrich Co. LLC, priority 2019, published 2022) one finds MIC data, which are given here for one molecule.

The test relates to Candida albicans. Nature of the test: Diffusion disc MIC testing against Candida albicans. The following applies: diffusion paper disc, 10 μL applied, incubated overnight at 30° C., average of three experiments, read-out: Inhibition of Candida albicans (MIC, lower concentration at which inhibition could be visualized). Format: cell-based. The protocol:
Minimum inhibitory concentration (MIC) testing was determined for the inventive nystatin formulation described herein, along with comparative antifungal agents.
Nystatin (Solid) and amphotericin were dissolved in DMF in 1 mg/mL. Econazole nitrate was dissolved in PBS to achieve 1 mg/mL. Nystatin formulation diluted with PBS to achieve the same potency as Nystatin (Solid).
Antibiotic medium 19 was sterilized in autoclave, after sterilization when the temperature lowered to 45° C. and 1 mL from spore suspension was added. 8 mL from this mixture dispensed to each petri dish.
On each dish 6 sterile diffusion paper disc were placed, 10 μL from each antibiotic were applied in 10, 15, 20, 25, 30, 35 μg/mL concentrations. Where MIC concentrations were below 10, lower concentrations were used: 2, 5, 7.5 μg/mL
The petri dishes were incubated overnight at 30° C. The MIC were determined as the lower concentration that inhibition could be visualized.

In brackets after ≈: the same amount, converted by molar mass.

Consider `C[C@@H]1[C@H](O)[C@@H](C)/C=C/C=C/C=C/C=C/C=C/C=C/C=C/[C@H](O[C@@H]2O[C@H](C)[C@@H](O)[C@H](N)[C@@H]2O)C[C@@H]2O[C@](O)(C[C@@H](O)C[C@@H](O)[C@H](O)CC[C@@H](O)C[C@@H](O)CC(=O)O[C@H]1C)C[C@H](O)[C@H]2C(=O)O` [Amphotericin, Amphotericin B], for which the MIC stood at 16 µg/mL (≈ 17.3 µM).
